Values from PubChem BioAssay AID1224826 (NIAID, 2016)
Aim: 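Genes that change LPS-induced Tnf promoter activity in mouse macrophages when knocked down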 (primary screen). System: RAW264.7 G9 macrophages from mouse bearing reporters for p65 (GFP) and the Tnf promoter (mCherry). Reagents: siRNA pool against mouse genes, 100 nM. Time to read-out: 16 h of LPS stimulation, after 2 days of siRNA transfection. Challenge: bacterial lipopolysaccharide (Salmonella minnesota R595), 10 ng/ml. Read-out: 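Imaged Tnf reporter mCherry in nuclei, minus background, normalised per plate to the median and expressed as robust z-scores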. Direction: Tnf reporter robust z-score: higher = stronger Tnf promoter reporter signal after LPS. Rule for the call: 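Called active when robust z-score is at most -1.3, matching the median of the Tlr4 knock-down control, or over 3; control wells and wells with under 50 cells never active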. Meaning of the calls: active = Tnf reporter clearly lowered or raised; inactive = no clear change in Tnf reporter.
This is one part, drawn at random, of about 17,000 deposited reagents. Of all reagents, about 1,110 (6.6%) got an active call. 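Active means lowered or raised reporter signal; replicate intensities are raw and not normalised per plate.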 Entries without a mark were called inactive. Further read-outs or replicates are left out here. Reagent sequences are not shown.

gene	PubChem SID	Tnf reporter robust z-score	fewer than 50 cells in well
Cd3g (GeneID 12502)	SID315465860	0.73	enough cells in well
Csdc2 (GeneID 105859)	SID315476518	0.45	enough cells in well
B4galt5 (GeneID 56336)	SID315471466	-1.24	enough cells in well
Srek1ip1 (GeneID 67288)	SID315472947	-0.83	enough cells in well
Ralyl (GeneID 76897)	SID315475405	1.72	enough cells in well
Slc5a5 (GeneID 114479)	SID315477008	-0.02	enough cells in well
Thbs2 (GeneID 21826)	SID315469706	-1.33 (active)	enough cells in well
Timm10b (GeneID 14356)	SID315466769	-1.18	enough cells in well
Nomo1 (GeneID 211548)	SID315477690	1.2	enough cells in well
4932425I24RIK	SID315482013	1.97	enough cells in well
Spem2 (GeneID 108803)	SID315476740		fewer than 50 cells per well; well left out of calls
Slco1a6 (GeneID 28254)	SID315470694	-0.67	enough cells in well
Kcnk2 (GeneID 16526)	SID315467590	0.9	enough cells in well
Lsm5 (GeneID 66373)	SID315472395	2.63	enough cells in well
Ctnnal1 (GeneID 54366)	SID315471203	-1.1	enough cells in well
Col27a1 (GeneID 373864)	SID315481736	0.37	enough cells in well
Ankrd34b (GeneID 218440)	SID315478191	0.7	enough cells in well
Ndufa1 (GeneID 54405)	SID315471230	-0.59	enough cells in well
Lpo (GeneID 76113)	SID315475245	-0.25	enough cells in well
Slc15a2 (GeneID 57738)	SID315471799	2.51	enough cells in well
Tubb4b (GeneID 227613)	SID315478571	0.44	enough cells in well
Polr3k (GeneID 67005)	SID315472771		fewer than 50 cells per well; well left out of calls
Antxr1 (GeneID 69538)	SID315473823	0.69	enough cells in well
Cypt3 (GeneID 69361)	SID315473791	1.23	enough cells in well

In a second layout: 2 of the entries above
{"gene": "4932425I24RIK", "PubChem SID": "SID315482013", "Tnf reporter robust z-score": 1.97, "fewer than 50 cells in well": "enough cells in well"}
{"gene": "Spem2 (GeneID 108803)", "PubChem SID": "SID315476740", "fewer than 50 cells in well": "fewer than 50 cells per well; well left out of calls"}
